Over roughly 33,000 sequences, “E-score (-0.5 to 0.5)” has its median near -0.015; the highest 2% begin near 0.3. Some of the results follow.
Target: T1, Abf1 (UniProt P14164)
T1 sequence: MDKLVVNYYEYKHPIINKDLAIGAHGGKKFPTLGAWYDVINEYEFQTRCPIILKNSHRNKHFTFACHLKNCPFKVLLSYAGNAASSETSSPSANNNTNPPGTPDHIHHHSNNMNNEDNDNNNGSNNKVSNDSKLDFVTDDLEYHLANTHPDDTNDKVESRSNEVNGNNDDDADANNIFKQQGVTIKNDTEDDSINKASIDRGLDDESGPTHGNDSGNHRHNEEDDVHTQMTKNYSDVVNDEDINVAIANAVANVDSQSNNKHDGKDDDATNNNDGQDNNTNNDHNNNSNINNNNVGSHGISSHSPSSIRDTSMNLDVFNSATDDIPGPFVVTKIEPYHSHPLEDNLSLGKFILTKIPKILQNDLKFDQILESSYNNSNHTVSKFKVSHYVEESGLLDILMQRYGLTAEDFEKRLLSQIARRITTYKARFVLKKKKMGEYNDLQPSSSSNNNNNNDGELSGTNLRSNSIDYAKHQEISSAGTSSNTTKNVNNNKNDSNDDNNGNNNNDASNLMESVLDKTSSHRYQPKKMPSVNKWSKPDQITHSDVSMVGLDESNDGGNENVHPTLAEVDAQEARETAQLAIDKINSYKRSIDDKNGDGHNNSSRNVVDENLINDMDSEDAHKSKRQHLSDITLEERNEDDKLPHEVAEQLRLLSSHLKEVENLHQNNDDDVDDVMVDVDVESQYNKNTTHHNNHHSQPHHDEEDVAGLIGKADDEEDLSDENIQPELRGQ
Test: PBM E-score (8-mer binding enrichment) (E-score (-0.5 to 0.5)); higher = stronger / more preferred TF binding
Settings: protein concentration: 200 nM; construct: GST-full length
Procedure, shortened: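 GST-tagged yeast TFs (full-length or DNA-binding domain) were made by PURExpress in vitro transcription/translation and applied at about 100-200 nM to universal all-10-mer Agilent arrays. The arrays were made double-stranded by primer extension, on fresh or once-stripped slides. Bound protein was detected with fluorescent anti-GST, and scans were normalised with masliner. Each ungapped eight-base word, pooled with its reverse complement, received an E-score (modified Wilcoxon-Mann-Whitney statistic) from the Universal PBM Analysis Suite.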

Sequence | PBM E-score
CTGGAAGA | -0.0285
AACCCCAG | -0.118
AACTGCGA | -0.0488
AAACCGGG | -0.12
CCAACGCC | -0.201
ATTGCAAC | -0.11
TCATTCGA | 0.129
TAGATAGA | 0.00508
CAAGCTGG | -0.16
AGGGATAG | -0.0712
AGATCGGC | -0.101
CTAGTTCA | -0.0287
GCGCGTAA | -0.0789
ATTTAGAC | 0.143
AGATGTAG | 0.053
CTTTTTGC | -0.101
AGTCACAC | -0.142
TACTGATA | 0.143
AAAGGCCT | -0.0779
GCAGCGTA | -0.158
AAAGAACC | -0.233
CTGACCGA | -0.173
GCTCTCCA | -0.227
AACTTTCA | 0.1
CGATTCAC | 0.192

Sequence | PBM E-score
AAGAAGCG | -0.0981
AGTCTTGA | -0.0571
AACTGGAC | -0.0466
ATACGCAA | 0.142
ACTGGGGA | -0.204
AGGACACG | -0.0106
AATTATCA | 0.34
CCGGGCTC | -0.278
ACGCCAAG | -0.223
AATAAGCA | 0.12
GAACGAGC | 0.168
AGGGTCGC | 0.0316
GCGGGAAC | -0.0488
GACTGCGA | -0.206
AACCTCCA | -0.22
GATGGTGA | 0.0135
CCCACCAC | -0.156
GAGTGACA | 0.432
GAGGACTA | -0.218
ATCTACCA | -0.0237
ACCGCCTG | -0.184
CACGAACG | 0.372
CGCTGGAG | -0.155
CTAACGTC | 0.18
ATGCCTAA | -0.131

Sequence | PBM E-score
CGAATCTC | -0.071
AGCCAAAC | -0.00711
ATACTAAA | 0.16
ATCGTGAG | 0.223
CGCGTCAA | -0.0482
GGCTTTAA | -0.0881
CAATCGGG | -0.0709
CTGCGTCC | -0.269
GAGATCTC | 0.0386
GGCATTAC | 0.0323
TAGAGACA | 0.00944
AGCAAATG | 0.0179
ATCCTGTA | 0.0698
AGATGAGC | 0.136
TATGTAGA | -0.0892
CACGAGGA | 0.236
CCGAGCTA | -0.0288
CATGCAAG | -0.285
ATATTTAC | 0.162
GAGTCATA | -0.0654
GGAACGGA | -0.0218
AAAAGTGA | 0.292
ATGGTGGC | -0.387
GGAATATA | 0.0497
CTACAGAG | -0.111

Sequence | PBM E-score
CGCCTACA | -0.119
AGTAACAA | 0.0354
GCACGCAA | -0.164
CGCCTAGC | -0.292
GGTAGTTA | 0.00521
ACGCTGGG | -0.254
CGGCGGGC | -0.0559
GTGATTCA | 0.168
CGATGGAG | 0.111
CGTAATTA | 0.182
CAGATCAC | 0.284
CGTACGAC | 0.417
GGAGTCGA | -0.16
ATGGACGG | 0.227
ACTGGGAT | 0.0496
AGGCAAGG | -0.171
CGGCAGGC | -0.0216
ACATATAC | 0.0202
GGCTGCGA | -0.0617
AGCTAAAG | -0.0956
CAGTCCGC | -0.192
CACCGTGG | 0.0343
ACTACGTG | -0.143
AAACCTTA | 0.042
AAACTATA | 0.153

Sequence | PBM E-score
CATCAAAG | -0.131
ACGACGCC | 0.273
ATGCGAGA | 0.144
CAAATACC | -0.128
CCGCTGCC | -0.12
ACGCCAGC | -0.0567
TAGCCTCA | -0.161
CTCAATCC | 0.00088
GGCGACTA | -0.103
CGCTTGCA | -0.0575
CGCCGCAG | -0.109
CTCCCCTA | -0.0351
ATTTTACA | 0.0107
CTTCGTGC | 0.271
AGGGCGTC | 0.0427
CAACGGAC | -0.12
ATGGGCCC | -0.253
AAAGAATA | 0.099
GTCCTCTA | -0.201
AGACTTCA | -0.0675
AATAAGAA | 0.141
TCCCGACA | 0.0195
CGATTCAG | -0.0523
GCTGTCTA | 0.00379
CCATTAGC | -0.185

Some of the entries above in a different format:

| Sequence | PBM E-score |
| --- | --- |
| ATGCGAGA | 0.144 |
| CAAATACC | -0.128 |
| CCGCTGCC | -0.12 |
| ACGCCAGC | -0.0567 |

Remaining list, next part

Sequence | PBM E-score
AATTGGTA | 0.146
CACTGAAG | -0.112
CGGGCCTC | -0.193
CGAGTTAA | 0.218
CAAGGTCG | -0.172
AAGAGTCT | -0.254
CTTCAGCC | -0.139
ACGTAGCG | 0.208
ACGACAAA | 0.369
AAAACACC | 0.0509
AGTCGATC | -0.158
TCCTAACA | 0.12
AGCAGGCA | -0.114
TACCACAA | -0.0282
AAGTGAAG | -0.0276
AAACGGCT | -0.131
ACTATCAT | 0.184
ATGGAGTG | -0.187
TCAATCAA | 0.113
AGGTTAGA | -0.252
AGTTCACA | -0.053
CTTTTCCA | -0.25
AGTACTCG | 0.0742
ACTCCGCT | -0.249
CGCCAGGC | -0.189

Sequence | PBM E-score
ATCCCCCC | -0.365
ACCGCAAC | -0.0637
CGTATATC | 0.255
CGTGCCTA | 0.00273
CTCAGGCC | -0.284
GGGTCGTA | 0.0897
GACACGAA | 0.172
GAATCAAC | 0.0931
AGCTCTAG | 0.0626
CATGGGTC | -0.137
TACGTGCA | -0.0879
CACATCAA | 0.177
GACTCCCA | -0.167
GCGTTATA | 0.0304
AGAAGGAT | -0.0175
CCTTGAAG | -0.111
ACCCCATA | -0.124
TAGGGGAA | -0.0804
ACAGTCCC | -0.265
GCCATTAA | 0.0468
CCGAATCA | -0.044
GCATGCAC | -0.0549

Three entries picked at random from those above, as already listed:
Sequence | PBM E-score
CTCAGGCC | -0.284
AGCTCTAG | 0.0626
AGAAGGAT | -0.0175

Reference: the supplement of paper PMC3334620
